Assay results reported in patent WO2021175954A1 (dated 2021).
Substitutions are numbered along the chain they refer to. Results are given in words; binding and its absence hold for the method and conditions named. Some binding calls cover weakened binding; strength is not graded here.

B1: chimeric anti-BTNL8 mAb mAbX1 (antibody, V domains shown)
VH: QVQLQQSGAELARPGASVKLSCKASGYIFTSYGIGWVKQRTGQGLEWIGEVYPRNGHSYYNEKFKGKATLTADRSSSTAYMQLSSLTSEDSAVYFCARGGTGSQLDYWGQGTTLTVSS
VL: DIQMTQSPASLSASVGETVTITCRASENIYSYLAWYQQKQGKSPHLLVYNAKTLAEGVPSRFSGSGSGTQFSLRISSLQPEDFGNYYCQHHYGTYTFGGGTKLEIK
notes: also called mAbXl
B2: chimeric anti-BTNL8 mAb mAbX2 (antibody, V domains shown)
VH: EVQLQQSGAEFVRPGASVKMSCTGSGLNIEDDYMHWVKQRPEQGLEWIGRIDPANGNTKYGPKFQDKATITADTSSNTAYLQLSSLTAEDTAVYYCTRNYYDGSLYYFDYWGQGTTLTVSS
VL: QIVLTQSPAIMSASLGEEITLTCSASSSVSYMHWYQQKSGTSPKLLIYSTSNLASGVPSRFSGSGSGTFYSLTISSVEAEDAADYYCHQWSRYPYTFGGGTKLEIK
B3: chimeric anti-BTNL8 mAb mAbX4 (antibody, V domains shown)
VH: EVQLQQSGAELVRPGASVKLSCTASGFNIKDDYMHWVKQRPEQALEWIGRIDPANGNTKYVPKFQDKATITADTSSNTASLQLSSLTSEDTAVYYCARWGIYDGYYYTMDSWGQGTSVTVSS
VL: QNVLIQSPAIMSASPGEKVTITCSASSSVSYMHWFQQKPGTSPKLWIYSTSNLASGVPARFSGSGSGTSYSLTISRMEAADAATYFCQQRSRYPYTFGGGTKLEIK
B4: chimeric anti-BTNL8 mAb mAbX5 (antibody, V domains shown)
VH: EVQLQQSGAELVRPGASIKLSCTASGFNIEDDYMHWVRQRPVQGLEWIGRIDPANGNANFAPKFQDKATITADTSSNTAYLQLSSLASEDTAVYYCTREGGLYYGNSDAMDYWGQGTSVTVSS
VL: B3 VL with N2I, I5T, S26R, H33Q, F35I, A59D, A80E, F86Y, Y95R
B5: reference murine antibody mAb X1 (antibody, V domains shown)
VH: B1 VH
VL: B1 VL
notes: Murine monoclonal antibody, tested as hybridoma supernatant or purified from it
B6: reference murine antibody mAb X2 (antibody, V domains shown)
VH: B2 VH
VL: B2 VL
notes: as for B5
B7: reference murine antibody mAb X4 (antibody, V domains shown)
VH: B3 VH
VL: B3 VL
notes: as for B5
B8: reference murine antibody mAb X5 (antibody, V domains shown)
VH: B4 VH
VL: B3 VL with N2I, I5T, S26R, H33Q, F35I, A59D, A80E, F86Y, Y95R
notes: as for B5

biological target: T1, recombinant human BTNL8 protein (BLI) (human, UniProt Q6UX41 18-238, limits assumed); test: BLI epitope binning, classical sandwich, recombinant human BTNL8 at 40 nM
T1 construct: it may be the same rhBTNL8-Fc as in the Luminex assay; also called hBTNL8; recombinant BTNL8 protein
T1 sequence: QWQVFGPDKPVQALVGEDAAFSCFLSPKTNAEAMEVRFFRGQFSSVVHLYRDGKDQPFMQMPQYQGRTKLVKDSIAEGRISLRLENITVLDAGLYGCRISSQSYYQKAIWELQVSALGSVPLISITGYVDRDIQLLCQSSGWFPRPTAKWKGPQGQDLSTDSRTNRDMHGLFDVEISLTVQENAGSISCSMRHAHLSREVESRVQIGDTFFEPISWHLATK

Binder | binding
B1 | binds

biological target: T1, recombinant human BTNL8 protein (BLI); test: BLI (OctetRed96), recombinant human BTNL8

Binder | binding
B1 | binds
B2 | binds
B3 | binds
B4 | binds

biological target: recombinant cynoBTNL8-Fc fusion protein (cynomolgus (Macaca fascicularis); human); test: ELISA, hybridoma supernatant on coated cynoBTNL8-Fc

Binder | binding
B5 | binds
B6 | binds
B7 | binds
B8 | binds

biological target: recombinant cynoBTNL8-Fc fusion protein (cynomolgus (Macaca fascicularis); human); test: binding to recombinant cynoBTNL8-Fc (data not shown; method not named)

Binder | binding
B1 | binds
B2 | binds
B3 | binds
B4 | binds
